Test results: PubChem BioAssay AID540276 (National Center for Advancing Translational Sciences (NCATS), 2011)
The campaign covered roughly 300,000 compounds. About 5,400 (1.8%) were called active. The inconclusive results got no clear call from the source; some entries with a clear call stand among them for comparison. The call rests on the fitted dose curve; tested in HEK293 cells. Potencies of inconclusive entries are doubtful fits and often do not repeat.

Experiment: qHTS for inhibitors of binding or entry into cells for Marburg Virus
Details: Marburg virus pseudotyped entry inhibition, cell reporter; activity change, negative = inhibition: at 37.8 µM (top of the series) unless noted
On the % scale 0 is the no-effect control and ±100 the full control effect; potency means the concentration at half of the fitted maximal effect.

| Structure (SMILES) | Potency | activity change, negative = inhibition |
| --- | --- | --- |
| Cc1ccccc1NS(=O)(=O)c1cc(S(C)(=O)=O)ccc1C | inconclusive: 3.98 µM [activator, single point] | – |
| CCC(=O)Nc1cccc(-c2nnc(SCC(=O)NCc3ccco3)n2C)c1 | inconclusive: 14.1 µM [activator, single point] | – |
| CCCc1nn2c(=O)cc(CSCC(=O)Nc3cccc(OC)c3)nc2s1 | – | inactive: 0.744% [at 46.1 µM] |
| COc1cc(OC)c(NC(=O)c2cc3ccccc3cc2O)cc1Cl | inconclusive: 35.5 µM [inhibitor, single point] | – |
| O=C(Nc1nccs1)C1Cc2ccccc2CN1S(=O)(=O)c1ccc(F)cc1 (stereo not given) | inconclusive: 4.11 µM [activator, single point] | – |
| COc1ccc(NCc2nc3ccccc3n2CCOc2ccccc2)cc1 | inconclusive: 35.5 µM [inhibitor, single point] | – |
| COc1cc2nc(SCc3c(C)noc3C)n(CCC3=CCCCC3)c(=O)c2cc1OC | inconclusive: 29.1 µM [inhibitor, partial curve, poor fit] | – |
| CC(=O)c1ccc(OC(=O)N(c2ccccc2)c2ccccc2)cc1 | inconclusive: 1.78 µM [activator, partial curve, poor fit] | – |
| O=[N+]([O-])c1ccc(N2CCN(S(=O)(=O)c3ccccc3)CC2)cc1NCC1CCCO1 (stereo not given) | – | inactive: 12.2% |
| CC(=O)CSc1nc2ccccc2s1 | – | inactive: 0.121% |
| O=C(Nc1ccccc1N1CCN(C(=O)c2ccc(Cl)cc2)CC1)c1ccc2c(c1)OCO2 | inconclusive: 18.3 µM [inhibitor, partial curve, poor fit] | – |
| CC1/C(=N/O)CC(c2ccco2)NC1c1ccco1 (stereo not given) | inconclusive: 0.708 µM [activator, full curve, poor fit] | – |
| C=C(CN(C)C)C(=O)c1cc(C)ccc1C | inconclusive: 8.91 µM [inhibitor, partial curve, poor fit] | – |
| Cc1nc([N+](=O)[O-])c(C(=O)OCc2ccccc2F)n1C | – | inactive: 14.1% [at 46.1 µM] |
| CCOc1ccc(CCNC(=O)COC(=O)CNS(=O)(=O)c2ccc(C)cc2)cc1OCC | – | inactive: -6.04% |
| Cc1cccc(NC(=O)Cn2c(=O)n(CCC(=O)NC3CCCC3)c(=O)c3ccccc32)c1 | – | inactive: -18.1% |
| Nc1cc(=O)nc(SCC(=O)Nc2ccc(F)cc2)n1-c1ccccc1Cl | inconclusive: 6.31 µM [inhibitor, partial curve, poor fit] | – |
| COc1ccc(Cl)cc1NC(=O)COc1cccc(-n2cnnn2)c1 | – | inactive: 4.35% |
| COc1cccc(C2C(C(=O)c3ccco3)=C(O)C(=O)N2CCCN2CCOCC2)c1OC (stereo not given) | – | inactive: 9.44% [at 46.1 µM] |
| O=C(NCc1ccco1)c1cccc2ccccc12 | – | inactive: 9.93% |

Retrieved by compound from the list above (two):

| Structure (SMILES) | Potency | activity change, negative = inhibition |
| --- | --- | --- |
| CC(=O)c1ccc(OC(=O)N(c2ccccc2)c2ccccc2)cc1 | inconclusive: 1.78 µM [activator, partial curve, poor fit] | – |
| Nc1cc(=O)nc(SCC(=O)Nc2ccc(F)cc2)n1-c1ccccc1Cl | inconclusive: 6.31 µM [inhibitor, partial curve, poor fit] | – |
